Test results taken from patent publication US20220218690A1, “MONTELUKAST SALTS AND PHARMACEUTICAL COMPOSITIONS CONTAINING THE SAME” (GENETIC S.P.A., priority 2019, published 2022).
Like-named read-outs stand apart in the source and are kept apart here.

How the values were obtained:
[1] = system: salbutamol-induced bronchial relaxation
Procedure: (§1) Mouse model of asthma. Female BALB/c mice (8 weeks: Charles River) were sensitized through subcutaneous administration of Ovalbumin (100 μg dissolved in 400 μl of AlOH3 13.5 mg/ml) on days 0 and 8, on the twenty-first day the mice were stimulated by aerosolic administration of Ovalbumin (3% for twenty minutes). The mice were sacrificed after 48 hours and the bronchi used for the evaluation of bronchial reactivity at carbachol and salbutamol. The drugs were administered intraperitoneally prior to each exposure to the allergen. […] Pulmonary tissues were harvested and used for dosage of cytokines such as IL-4 and IL-13. In addition plasma levels of IgE were measured.

[2] = system: bronchial hyperreactivity
Procedure: as §1

IgE = conditions: 0.75 mg/Kg; FIG. 18-A
Procedure: as §1

Paw mouse edema = conditions: FIG. 13

CC(C)(O)c1ccccc1CCC(SCC1(CC(=O)O)CC1)c1cccc(C=Cc2ccc3ccc(Cl)cc3n2)c1.COc1ccc(CC(C)NCC(O)c2ccc(O)c(NC=O)c2)cc1 (stereo not shown) [Montelukast formoterol salt, N-(2-(3-formamido-4-hydroxyphenyl)-2-hydroxyethyl)-1-(4-methoxy-phenyl)propan-2-aminium-2-(1-(((1-(3-(2-(7-chloroquinolin-2-yl)vinyl)-phenyl)-3-(2-(2-hydroxypropan-2-yl)phenyl)propyl)thio-)methyl)cyclopropyl)acetate]
control of the response to salbutamol ([1]; 0.75 mg/Kg among 0.3, 0.75, 1.5 mg/kg, FIG. 15): most effective in controlling the response to salbutamol
p vs OVA, preserving salbutamol-induced bronchial relaxation ([1]; 0.75 mg/Kg, dose series (FIG. 15)): < 0.001
p vs Formoterol, preserving salbutamol-induced bronchial relaxation ([1]; salt 0.75 mg/kg vs Formoterol 0.3 mg/kg, FIG. 17): < 0.001
p vs Montelukast, preserving salbutamol-induced bronchial relaxation ([1]; salt 0.75 mg/kg vs Montelukast 0.3 mg/kg, FIG. 17): < 0.001
reversal of Ovalbumin-induced reduction of salbutamol-induced relaxation ([1]; salt 0.75 mg/kg, FIG. 17): efficiently reverses this effect
p vs OVA, preserving salbutamol-induced bronchial relaxation ([1]; salt 0.75 mg/kg, comparison series FIG. 17): < 0.001
bronchial reactivity (response to carbachol) ([2]; 0.75 mg/Kg intraperitoneal): reports the bronchial reactivity to basal values
p vs OVA, preventing bronchial hyperreactivity ([2]; 0.3, 0.75 and 1.5 mg/Kg, FIG. 14): < 0.001
control of bronchial hyperreactivity ([2]; 0.3, 0.75 and 1.5 mg/kg intraperitoneal prior to each allergen exposure, FIG. 14): good control of bronchial hyperreactivity, which is a dose-related effect
p 0.75 mg/Kg vs 0.3 mg/Kg, preventing bronchial hyperreactivity ([2]; FIG. 14): < 0.001
p 0.75 mg/Kg vs 1.5 mg/Kg, preventing bronchial hyperreactivity ([2]; FIG. 14): < 0.05
best dose ([2]; doses 0.3, 0.75 and 1.5 mg/kg tested): 0.75 mg/kg
p vs Formoterol, preventing bronchial hyperreactivity ([2]; salt 0.75 mg/kg vs Formoterol 0.3 mg/kg (FIG. 16)): < 0.05
IgE plasma levels (IgE): unaffected
anti-inflammatory effect (Paw mouse edema; 0.3 mg/kg intraperitoneal, 30 minutes before intraplantar carrageenin): significantly increased
p vs vehicle, anti-inflammatory effect (Paw mouse edema): < 0.001
